Our source for the binding values is PMC6817842.

Results are given in words; binding and its absence hold for the method and conditions named. In cells and extracts the contact can be indirect. Some entries that bind do so weakly or less than the wild type.

This assay has as its target NKX2-5^fb (NKX2-5 with C-terminal FLAG and biotin acceptor peptide, knock-in allele) (mouse), P42582. In words: pull-down; biotinylated knock-in TF captured on M280 streptavidin Dynabeads from 150 µg embryonic heart lysate in RIPA buffer, 4 h at 4 °C; beads washed with cold PBS; partners detected by capillary electrophoresis immunoassay (ProteinSimple Wes); called CoIP in the methods. As to conditions: remark: other sources report otherwise.

B1: TBX5 (endogenous), P70326 1-518 (protein)
chain: MADTDEGFGLARTPLEPDSKDRSCDSKPESALGAPSKSPSSPQAAFTQQGMEGIKVFLHERELWLKFHEVGTEMIITKAGRRMFPSYKVKVTGLNPKTKYILLMDIVPADDHRYKFADNKWSVTGKAEPAMPGRLYVHPDSPATGAHWMRQLVSFQKLKLTNNHLDPFGHIILNSMHKYQPRLHIVKADENNGFGSKNTAFCTHVFPETAFIAVTSYQNHKITQLKIENNPFAKGFRGSDDLELHRMSRMQSKEYPVVPRSTVRHKVTSNHSPFSSETRALSTSSNLGSQYQCENGVSGPSQDLLPPPNPYPLAQEHSQIYHCTKRKDEECSSTEHPYKKPYMETSPSEEDTFYRSGYPQQQGLSTSYRTESAQRQACMYASSAPPSEPVPSLEDISCNTWPSMPSYSSCTVTTVQPMDRLPYQHFSAHFTSGPLVPRLAGMANHGSPQLGEGMFQHQTSVAHQPVVRQCGPQTGLQSPGGLQPPEFLYTHGVPRTLSPHQYHSVHGVGMVPEWSENS
modifications: here or on the partner: biotin on the BIO peptide (added by BirA)
With B1, the binding result is “binds”.
